Reference: paper PMC8464644
No constants are given. Whether binding was seen depends on the method and setting. In cells and extracts the contact can be indirect.

The chains behind the UniProt entries cited, without tags or fusion partners.
UniProt P11142: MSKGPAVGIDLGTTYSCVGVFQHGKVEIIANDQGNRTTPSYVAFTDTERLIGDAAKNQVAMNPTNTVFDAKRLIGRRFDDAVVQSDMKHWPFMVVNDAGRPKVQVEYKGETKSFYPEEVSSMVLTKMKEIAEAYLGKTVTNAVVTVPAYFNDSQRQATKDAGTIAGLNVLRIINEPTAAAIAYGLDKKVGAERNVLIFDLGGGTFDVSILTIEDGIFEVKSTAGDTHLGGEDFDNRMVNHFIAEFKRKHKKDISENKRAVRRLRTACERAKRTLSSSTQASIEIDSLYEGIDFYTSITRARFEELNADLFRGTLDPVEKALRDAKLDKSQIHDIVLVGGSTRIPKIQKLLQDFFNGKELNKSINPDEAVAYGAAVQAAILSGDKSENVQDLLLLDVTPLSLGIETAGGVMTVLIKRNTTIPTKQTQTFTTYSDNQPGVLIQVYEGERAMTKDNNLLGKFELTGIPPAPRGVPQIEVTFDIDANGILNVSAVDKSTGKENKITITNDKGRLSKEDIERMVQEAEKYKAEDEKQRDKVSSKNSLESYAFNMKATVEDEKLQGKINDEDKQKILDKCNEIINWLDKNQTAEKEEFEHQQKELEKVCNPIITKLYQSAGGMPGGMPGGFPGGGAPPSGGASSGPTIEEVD

Molecular target: APP-M7 (all three KFERQ-like CMA motifs mutated) (UniProt P05067)
Experiment: co-IP; cells (HEK293T or SH-SY5Y) transfected with pcDNA5-APP or pcDNA5-APP-M7; TAP lysis buffer; APP antibodies on Protein A/G magnetic agarose beads 6 h at 4 °C; endogenous Hsc70 and Lamp2a detected by Western blot (Fig. S6F)

binding: no binding
Substance: Hsc70 (endogenous) (from UniProt P11142 1-646)
